Source: US20090215098A1, “QUANTIFICATION OF ENZYME ACTIVITY BY MASS SPECTROMETRY” (UCL BUSINESS PLC., priority 2006, published 2009)
For at least one compound, name, drawing or mass did not settle the structure.

Tested on: Akt
Assay: Akt activity in mouse B16 melanoma tumor biopsies after intratumoral injection of inhibitor
Format: in vivo
Conditions: B16/B16 melanoma in mice; 50 μL of 10 μM injected into tumor 2 hours before excision; vs vehicle; FIG. 4A

O=c1cc(N2CCOCC2)oc2c(-c3ccccc3)cccc12 [LY294002]
Activity of Akt in solid tumors: drastically different
